From patent publication US7888331B2, “Ganglioside compositions and methods of use” (Seneb Biosciences, Inc., priority 2003, dated 2011)
Some results were stated once for a whole list of compounds, not compound by compound.

Tested on: Ventral Mesophenthalic Cells (VMCs)
Assay: MPTP/VMC assay (in vitro) for neuroprotective efficacy
Format: cell-based, rat
Conditions: 10 μM, after MPTP 10 μM for 24 hours

## LIGA-20
  protection: 30-50%
